Measured values published in patent US5310728A, “Method for treating corneal endothelial wounds” (Chiron Ophthalmics, Inc., priority 1992, dated 1994).

Test system: TGF-α immunoreactivity
Test: Radioimmunoassay of TGF-α in cat anterior chamber fluid before and after touch injury to the corneal endothelium
Format: in vivo
Conditions: for Concentration of TGF-α in anterior chamber samples, mean: cat, RIA

## transforming growth factor alpha [TGF-α]
0 hr (prior to wounding)
  Concentration of TGF-α in anterior chamber samples, mean: 6.83 ng/mL
2 hr after touch injury
  Concentration of TGF-α in anterior chamber samples, mean: 97.44 ng/mL
6 hr after touch injury
  Concentration of TGF-α in anterior chamber samples, mean: 63.28 ng/mL
24 hours after surgery
  TGF-α level relative to pre-injury level: approximately 6 fold
24 hr after touch injury
  Concentration of TGF-α in anterior chamber samples, mean: 35.46 ng/mL
Two hours after the wounding
  Increase of TGF-α concentration over pre-wounding level: approximately 16 fold
